Results are given in words; binding and its absence hold for the method and conditions named. In cells and extracts the contact can be indirect. These calls come from enrichment with a bait or labelling near it, and not all partners need be listed.
Molecular target: T1, Kita-Kyushu lung cancer antigen-1 (KK-LC-1) (human (endogenous in MDA-MB-231 and MDA-MB-468)) (UniProt Q5H943)
T1 sequence: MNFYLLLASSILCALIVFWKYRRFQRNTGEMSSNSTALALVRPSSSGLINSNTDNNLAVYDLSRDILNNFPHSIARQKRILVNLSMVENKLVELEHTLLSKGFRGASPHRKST
Test: affinity purification with mass spectrometry; immunoprecipitation from MDA-MB-231 cells with anti-KK-LC-1 antibody and anti-IgG control; whole gel lanes analysed by mass spectrometry; proteins also found with anti-IgG removed; hits compared with known Hippo pathway components

By UniProt entry, the sequences of proteins in these tests, tags left out. Residues count along the entry.
UniProt Q14517, residues 22-4588: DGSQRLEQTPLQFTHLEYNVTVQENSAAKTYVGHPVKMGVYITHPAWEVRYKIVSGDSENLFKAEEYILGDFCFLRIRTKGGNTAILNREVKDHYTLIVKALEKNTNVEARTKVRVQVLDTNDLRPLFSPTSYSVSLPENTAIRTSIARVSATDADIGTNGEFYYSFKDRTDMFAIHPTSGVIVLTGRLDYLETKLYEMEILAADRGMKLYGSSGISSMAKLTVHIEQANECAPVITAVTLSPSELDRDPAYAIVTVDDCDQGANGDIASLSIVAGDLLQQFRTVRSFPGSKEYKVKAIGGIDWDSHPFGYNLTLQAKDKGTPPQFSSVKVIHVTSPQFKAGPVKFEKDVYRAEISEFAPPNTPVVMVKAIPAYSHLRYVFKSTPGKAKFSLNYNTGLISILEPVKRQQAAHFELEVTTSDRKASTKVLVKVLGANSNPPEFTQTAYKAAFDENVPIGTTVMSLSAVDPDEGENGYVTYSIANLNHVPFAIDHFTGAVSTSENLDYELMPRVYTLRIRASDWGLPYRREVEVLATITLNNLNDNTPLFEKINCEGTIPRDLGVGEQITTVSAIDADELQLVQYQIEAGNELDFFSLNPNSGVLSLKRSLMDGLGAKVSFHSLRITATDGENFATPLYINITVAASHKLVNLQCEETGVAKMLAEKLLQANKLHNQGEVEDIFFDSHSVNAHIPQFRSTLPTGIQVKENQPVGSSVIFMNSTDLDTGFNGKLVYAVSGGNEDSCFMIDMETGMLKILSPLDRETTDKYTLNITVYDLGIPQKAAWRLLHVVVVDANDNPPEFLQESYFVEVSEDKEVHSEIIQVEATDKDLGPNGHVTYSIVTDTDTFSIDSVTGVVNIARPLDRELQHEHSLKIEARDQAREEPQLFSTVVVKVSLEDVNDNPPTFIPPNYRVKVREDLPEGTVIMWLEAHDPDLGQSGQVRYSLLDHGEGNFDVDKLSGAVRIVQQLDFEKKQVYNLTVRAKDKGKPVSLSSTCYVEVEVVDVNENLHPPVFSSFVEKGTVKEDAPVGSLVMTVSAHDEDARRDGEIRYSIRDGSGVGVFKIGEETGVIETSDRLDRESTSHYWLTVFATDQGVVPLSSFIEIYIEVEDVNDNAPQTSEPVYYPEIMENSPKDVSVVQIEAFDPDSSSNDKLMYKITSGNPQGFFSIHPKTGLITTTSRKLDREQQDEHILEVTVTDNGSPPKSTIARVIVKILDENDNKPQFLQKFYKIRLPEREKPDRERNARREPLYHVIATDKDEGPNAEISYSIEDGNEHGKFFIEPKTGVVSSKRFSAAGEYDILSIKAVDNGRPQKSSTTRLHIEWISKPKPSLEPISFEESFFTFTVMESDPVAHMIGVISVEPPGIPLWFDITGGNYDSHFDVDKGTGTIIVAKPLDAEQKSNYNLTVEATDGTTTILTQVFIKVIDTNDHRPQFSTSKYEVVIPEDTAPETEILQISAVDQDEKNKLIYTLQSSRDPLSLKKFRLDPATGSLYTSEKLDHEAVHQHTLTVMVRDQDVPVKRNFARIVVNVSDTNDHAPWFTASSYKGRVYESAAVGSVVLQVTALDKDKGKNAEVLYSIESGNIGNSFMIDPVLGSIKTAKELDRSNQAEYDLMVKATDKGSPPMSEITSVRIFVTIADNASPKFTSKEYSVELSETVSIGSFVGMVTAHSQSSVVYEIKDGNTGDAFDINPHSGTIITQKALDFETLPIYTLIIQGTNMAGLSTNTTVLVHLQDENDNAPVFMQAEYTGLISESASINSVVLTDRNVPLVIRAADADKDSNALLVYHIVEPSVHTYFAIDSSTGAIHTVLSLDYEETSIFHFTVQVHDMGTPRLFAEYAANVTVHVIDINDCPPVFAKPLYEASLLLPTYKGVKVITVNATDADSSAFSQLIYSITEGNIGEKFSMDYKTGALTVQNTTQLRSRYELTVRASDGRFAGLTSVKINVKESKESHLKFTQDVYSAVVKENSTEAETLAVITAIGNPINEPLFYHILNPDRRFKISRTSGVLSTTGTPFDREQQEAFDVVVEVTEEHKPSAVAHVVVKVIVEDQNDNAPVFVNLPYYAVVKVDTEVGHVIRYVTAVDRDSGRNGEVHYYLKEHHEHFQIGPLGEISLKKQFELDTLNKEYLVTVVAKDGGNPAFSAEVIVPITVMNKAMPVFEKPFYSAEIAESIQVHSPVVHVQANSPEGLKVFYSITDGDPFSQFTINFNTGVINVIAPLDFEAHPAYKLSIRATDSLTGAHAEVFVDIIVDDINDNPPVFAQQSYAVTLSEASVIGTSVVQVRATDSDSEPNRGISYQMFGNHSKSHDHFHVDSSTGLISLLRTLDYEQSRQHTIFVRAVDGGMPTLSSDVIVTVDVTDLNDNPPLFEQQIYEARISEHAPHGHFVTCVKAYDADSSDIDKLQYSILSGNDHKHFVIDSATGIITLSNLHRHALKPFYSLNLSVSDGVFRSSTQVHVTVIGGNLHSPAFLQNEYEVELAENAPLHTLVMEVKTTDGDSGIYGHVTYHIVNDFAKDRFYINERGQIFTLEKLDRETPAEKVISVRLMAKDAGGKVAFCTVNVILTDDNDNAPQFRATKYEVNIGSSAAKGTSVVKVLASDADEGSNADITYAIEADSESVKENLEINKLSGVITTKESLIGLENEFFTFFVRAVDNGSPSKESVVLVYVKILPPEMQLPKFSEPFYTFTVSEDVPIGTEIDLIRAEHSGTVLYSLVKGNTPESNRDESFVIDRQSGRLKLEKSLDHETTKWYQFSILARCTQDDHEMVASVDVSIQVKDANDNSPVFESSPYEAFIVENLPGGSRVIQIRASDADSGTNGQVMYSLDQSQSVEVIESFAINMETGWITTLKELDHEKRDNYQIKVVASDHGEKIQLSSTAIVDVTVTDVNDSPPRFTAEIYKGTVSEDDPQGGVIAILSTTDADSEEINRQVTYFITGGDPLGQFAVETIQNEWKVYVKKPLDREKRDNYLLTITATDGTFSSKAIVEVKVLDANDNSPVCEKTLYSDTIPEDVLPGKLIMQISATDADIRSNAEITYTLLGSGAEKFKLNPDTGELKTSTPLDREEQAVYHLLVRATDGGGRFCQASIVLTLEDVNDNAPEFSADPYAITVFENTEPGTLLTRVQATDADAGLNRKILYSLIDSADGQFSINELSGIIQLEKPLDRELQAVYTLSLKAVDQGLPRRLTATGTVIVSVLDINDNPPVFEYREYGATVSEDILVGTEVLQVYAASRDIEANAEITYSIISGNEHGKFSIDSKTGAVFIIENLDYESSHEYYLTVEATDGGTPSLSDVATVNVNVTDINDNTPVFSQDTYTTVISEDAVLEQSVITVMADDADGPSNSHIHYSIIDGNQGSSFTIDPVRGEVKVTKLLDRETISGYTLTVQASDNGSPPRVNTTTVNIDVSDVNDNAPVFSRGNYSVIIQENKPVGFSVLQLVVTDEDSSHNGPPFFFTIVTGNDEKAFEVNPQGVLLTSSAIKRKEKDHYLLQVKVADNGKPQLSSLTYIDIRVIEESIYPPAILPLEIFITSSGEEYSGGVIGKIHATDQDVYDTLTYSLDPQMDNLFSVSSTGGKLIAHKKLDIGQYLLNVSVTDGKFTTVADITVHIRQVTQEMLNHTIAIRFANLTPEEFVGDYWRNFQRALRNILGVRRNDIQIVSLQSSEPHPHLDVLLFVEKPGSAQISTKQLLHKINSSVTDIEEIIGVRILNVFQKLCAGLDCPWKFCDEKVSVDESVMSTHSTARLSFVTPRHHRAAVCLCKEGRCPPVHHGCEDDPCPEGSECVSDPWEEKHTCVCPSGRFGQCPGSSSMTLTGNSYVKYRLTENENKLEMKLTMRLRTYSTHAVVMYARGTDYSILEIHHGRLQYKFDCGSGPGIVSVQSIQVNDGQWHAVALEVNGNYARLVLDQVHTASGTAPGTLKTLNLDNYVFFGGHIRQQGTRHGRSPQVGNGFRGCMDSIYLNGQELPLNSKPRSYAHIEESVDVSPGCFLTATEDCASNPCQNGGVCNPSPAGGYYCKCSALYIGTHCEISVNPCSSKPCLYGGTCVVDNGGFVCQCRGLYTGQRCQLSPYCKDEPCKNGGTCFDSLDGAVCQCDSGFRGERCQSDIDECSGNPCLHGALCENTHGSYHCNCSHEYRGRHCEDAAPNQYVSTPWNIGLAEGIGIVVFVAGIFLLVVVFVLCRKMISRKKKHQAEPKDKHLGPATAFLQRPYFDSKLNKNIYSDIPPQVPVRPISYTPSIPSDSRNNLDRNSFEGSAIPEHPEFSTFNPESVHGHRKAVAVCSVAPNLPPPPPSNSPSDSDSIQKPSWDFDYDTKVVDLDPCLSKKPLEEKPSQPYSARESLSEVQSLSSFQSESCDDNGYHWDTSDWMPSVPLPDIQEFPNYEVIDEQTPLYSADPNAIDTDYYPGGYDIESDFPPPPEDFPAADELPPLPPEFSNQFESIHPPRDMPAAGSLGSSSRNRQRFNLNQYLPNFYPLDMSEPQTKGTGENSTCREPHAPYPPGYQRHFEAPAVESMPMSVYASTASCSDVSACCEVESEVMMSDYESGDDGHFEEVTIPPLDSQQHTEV

binding: binds
Substance: FAT1 (from UniProt Q14517 22-4588)

Reference: article PMC10163259, “KK-LC-1 as a therapeutic target to eliminate ALDH^+ stem cells in triple negative breast cancer” (Nature Communications, 2023)
